Source: ChEMBL document CHEMBL3988442, “University of Dundee, Small-Polar-MMV Screening Library” (2021).

Mtb glucose medium: 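Phenotypic screen: M. tuberculosis growth, glucose 7H9 medium, 3 days; the read-out is not stated. Compounds at 500 µM. The record gives no direction; compounds that gave an IC50 in retests scored well above the rest, so higher reads as more growth inhibition. Size under these conditions: about 18,000 compounds, about 1,400 of them at 50% or above in at least one test.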
Mtb cholesterol medium: 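Whole-cell growth test on Mycobacterium tuberculosis, read after 4 days in a medium based on cholesterol and the lipid DPPC; the read-out is not stated. Compounds at 500 µM. The record gives no direction; compounds that gave an IC50 in retests scored well above the rest, so higher reads as more growth inhibition. Of about 18,000 compounds tested this way, about 900 (5%) reached 50% or more in at least one test.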

Each number is a percent effect as filed.
The record does not define 0% and 100%; most values in the screen are far below 50% and negative numbers occur (in some assays of this library far below -100).
This is an unselected part of the compounds tested.

SMILES,Mtb glucose medium,Mtb cholesterol medium
CNc1nc(NCCS(C)(=O)=O)ncc1Br,50.28,5.15
CCS(=O)(=O)NCCNCc1cccc(Cl)c1F,16.35,4.748
CCOCC(=O)Nc1cc(C(=O)NC)ccc1C,17.01,5.378
NC(=O)CSc1cnc2ccccc2n1,-1.155,-0.4687
CN1CCNCC1CCO (stereo not drawn),6.339,1.407
Cc1ccnc2nc(C(=O)NC(C#N)CC(C)C)nn12 (stereo not drawn),4.213,3.647
CCSc1ccc(NC(=O)NCCN(C)C)cn1,-18.76,-43.45
O=C(CCc1cc(Cl)no1)N1CCOC(C(F)(F)F)C1 (stereo not drawn),63.4,58.95
CNCCCNC(=O)CCc1ccc(F)cc1,65.92,12.52
COCCCC(=O)NC1CCc2nccn2C1 (stereo not drawn),-13.87,-20.44
NCCC1CN(Cc2ccccc2)CCO1 (stereo not drawn),23.45,8.422
CCN(CC)CC(=O)Nc1cc(C)nn1C,1.518,2.412
NC(=O)c1cc(N2CCCC2)ccn1,-1.713,9.639
N#Cc1ccc(S(=O)(=O)CCn2cccn2)c(Cl)c1,14.1,12.16
CNC(=O)C(O)CN (stereo not drawn),15.83,0.9904
CC(CC#N)N(C)C(=O)c1nccc2ccccc12 (stereo not drawn),10.62,8.003
Cc1cccc(OCCNC(=O)CCn2cncn2)c1,18.97,1.423
COCCN(CCOC)CC(=O)N(C)C,6.765,17.83
OCC1CN(c2ncccn2)CCO1 (stereo not drawn),3.979,-7.295
O=C1CCNC(=O)CC1,-13.04,-6.217
O=C(CCCc1cn[nH]c1)NCC[C@@H]1CCCN1,-0.3972,-3.956
O=C1CSc2ccccc2N1CCCn1cnnn1,21.18,7.122
O=C1CCNC(C2CC2)C1 (stereo not drawn),-13.74,-19.42
CC(Oc1ccc(S(C)(=O)=O)cc1)C(=O)N(C)C (stereo not drawn),-6.093,3.67
CC(NCCNC(=O)c1ccn[nH]1)c1cccs1 (stereo not drawn),40.64,16.08
NCCn1cc(C(=O)N2CCCC3(CCNC3)C2)nn1 (stereo not drawn),8.306,-4.314
CCC(NC(=O)CCn1cncn1)c1nccs1 (stereo not drawn),-12.48,-5.388
COc1ccccc1C(C)N(C)S(C)(=O)=O (stereo not drawn),28.41,10.14
Cc1ccc(-n2cc(NC(=O)CN(C)C)cn2)c(C)c1,6.616,2.339
Cn1cccc1C(=O)OCCCN1CCOCC1,-4.47,13.7
CNC1CCN(c2cc(OC)cc(OC)c2)C1 (stereo not drawn),70.54,52.88
CCn1ccnc1CN(C)CC1CCN(CCO)CC1,26.93,14.28
Cc1[nH][nH]c(=O)c1CCO,6.216,1.001
NC1CCCN(CCN2CCOCC2)C1 (stereo not drawn),9.831,-3.915
Cc1cccc(C)c1NC(=O)N[C@@H]1CNCC[C@H]1O,-4.445,-4.158
CCC[C@H]1CN(C(=O)c2nn(C)c(C)c2Cl)C[C@@H]1N,21,19.64
CCc1csc(CNC(C)Cn2cncn2)n1 (stereo not drawn),11.36,7.65
COC(C)CCC(=O)NCc1cn2ccccc2n1 (stereo not drawn),16.67,9.619
CCN(C)CCNC(=O)c1cc(C2CC2)[nH]n1,5.065,1.348
Cc1ccc(CS(=O)(=O)c2ncnn2C)cc1,38.28,18.4
CN(Cc1ccccc1)C(=O)CC1CCNC1 (stereo not drawn),38.77,9.695
CCCn1nnnc1CN1CCSCC1,21.44,12.25
C/N=C1/NCC2CN(C(=O)OC(C)(C)C)CCN12 (stereo not drawn),12.64,1.671
CC1(C)CCC(CCN)O1 (stereo not drawn),3.182,-0.5655
CCN(CC)C(=O)N1CCN(c2nccn2C)CC1,13.36,-4.616
Cc1ccc(S(=O)(=O)N2CCC[C@@H](N)C2)c(C)c1,76.47,57.67
CCCN1CCC(NCC(O)c2ccncc2)CC1 (stereo not drawn),4.456,10.72
CN1CC(NCc2ccc(C#N)cc2)CC1=O (stereo not drawn),3.734,1.771
Cc1nc(Cn2cc(Br)cn2)no1,26.4,16.62

The first 6 entries again:

SMILES,Mtb glucose medium,Mtb cholesterol medium
CNc1nc(NCCS(C)(=O)=O)ncc1Br,50.28,5.15
CCS(=O)(=O)NCCNCc1cccc(Cl)c1F,16.35,4.748
CCOCC(=O)Nc1cc(C(=O)NC)ccc1C,17.01,5.378
NC(=O)CSc1cnc2ccccc2n1,-1.155,-0.4687
CN1CCNCC1CCO (stereo not drawn),6.339,1.407
Cc1ccnc2nc(C(=O)NC(C#N)CC(C)C)nn12 (stereo not drawn),4.213,3.647